{"source": "PubChem BioAssay AID540256", "about": "(National Center for Advancing Translational Sciences (NCATS), 2011)", "note": "Out of some 300,000 compounds screened, about 3,700 (1.2%) were called active. This list was built around the results that the source calls inconclusive (neither active nor inactive); the mix of calls is not that of the screen. Calls follow the shape of the full dose curve; tested in HEK293 cells. A potency beside an inconclusive call is a rough fit, not a confirmed value. Potency is read from the fitted curve at half-maximal effect."}
{"assay": "qHTS for Inhibitors of binding or entry into cells for Lassa Virus; also: nearly all actives have a fitted effect of over 50% in size", "conditions": "Lassa virus pseudotype entry inhibition, cell reporter; series mostly up to 37.9 µM"}
{"smiles": "Nc1nc(CSC(=S)N2CCN(c3ccccc3)CC2)nc(Nc2ccc(F)cc2)n1", "Potency": "inconclusive: 29.1 µM [inhibitor, single point]"}
{"smiles": "Cc1onc(-c2ccccc2Cl)c1C(=O)Oc1ccc(Cl)cc1Cl", "Potency": "inactive"}
{"smiles": "CC(C)COc1ccc(C(=S)N2CCCC2)cc1", "Potency": "inconclusive: 15.8 µM [inhibitor, partial curve, poor fit]"}
{"smiles": "CCCc1nc(SCC(=O)N2c3ccccc3CC2C)c2c(C)c(C)sc2n1", "note": "(centres undefined)", "Potency": "inconclusive: 23.1 µM [inhibitor, single point]"}
{"smiles": "Cc1ccc(C)c(NC(=O)C(=O)NCCCN2CCOCC2)c1", "Potency": "inconclusive: 8.91 µM [activator, partial curve]"}
{"smiles": "Nc1nonc1-n1nnc(C(=O)N/N=C/c2cccc(F)c2)c1-c1ccc2c(c1)OCO2", "Potency": "inactive"}
{"smiles": "COc1cc(C(=O)OC2CCCCC2=O)cc(OC)c1C", "note": "(centres undefined)", "Potency": "inconclusive: 0.0291 µM [inhibitor, full curve, poor fit]"}
{"smiles": "c1ccc(-c2nnc3n2NC(c2ccc4c(c2)OCO4)S3)cc1", "note": "(centres undefined)", "Potency": "inconclusive: 4.11 µM [inhibitor, full curve]"}
{"smiles": "COc1cc(N=Cc2c(O)[nH]c3ccccc23)cc(OC)c1OC", "Potency": "inconclusive: 3.55 µM [inhibitor, partial curve, poor fit]"}
{"smiles": "CC(=O)Nc1ccc(C#Cc2ccc(NC(C)=O)cc2)cc1", "Potency": "active: 7.3 µM"}
{"smiles": "O=C(OCCN1CCCCC1)c1ccccc1Cl", "Potency": "inactive"}
{"smiles": "COc1ccc(OC)c(S(=O)(=O)Nc2ccc(O)c3ccccc23)c1", "Potency": "inconclusive: 35.5 µM [inhibitor, single point]"}
{"smiles": "COc1ccc(-c2c(NC(=O)c3ccco3)oc3c(C)cccc3c2=O)cc1", "Potency": "inactive"}
{"smiles": "CCOCc1cc(CN2CCN(c3cccc(C(F)(F)F)c3)CC2)c(O)c2ncccc12", "Potency": "inconclusive: 8.91 µM [inhibitor, partial curve, poor fit]"}
{"smiles": "COc1cccc(-n2c(SCc3cccc(C)c3)nc3c([nH]c4ccccc43)c2=O)c1", "Potency": "inconclusive: 12.6 µM [inhibitor, partial curve]"}
{"smiles": "O=C(N/N=C/c1cc(Br)cc(Cl)c1O)c1ccc2c(c1)OCO2", "Potency": "inconclusive: 35.5 µM [inhibitor, single point]"}
{"smiles": "O=C(C1CCC1)N1CCCc2cc(S(=O)(=O)N3CCN(c4cccc(Cl)c4)CC3)ccc21", "Potency": "inconclusive: 11.2 µM [inhibitor, partial curve, poor fit]"}
{"smiles": "Cc1cccc(/C=C/C(=O)c2ccc(NC3=NCCCS3)cc2)c1", "Potency": "inactive"}
{"smiles": "CCOc1ccc(S(=O)(=O)Nc2ccc(C(=O)NNC(=O)c3ccncc3)cc2)cc1", "Potency": "inactive"}
{"smiles": "CCOCc1nnc(NC(=O)c2cc(OC)c(OC)c(OC)c2)s1", "Potency": "inconclusive: 1.26 µM [inhibitor, single point]"}
{"smiles": "Cc1cc(Cl)ccc1C(=O)C1CCCN(C(=O)CN2CCOC2=O)C1", "note": "(centres undefined)", "Potency": "inactive"}
{"smiles": "CC(=O)Nc1ccc(NC(=O)CS(=O)(=O)c2cn(CC(=O)N3CCCCC3)c3ccccc23)cc1", "Potency": "inactive"}
{"smiles": "CC(Oc1cccc(Cl)c1)C(=O)Nc1nc(-c2ccccn2)cs1", "note": "(centres undefined)", "Potency": "inconclusive: 35.5 µM [inhibitor, single point]"}
{"smiles": "O=C(CSc1cccc2cccc(Cl)c12)NCc1cccs1", "Potency": "inconclusive: 28.2 µM [inhibitor, partial curve, poor fit]"}
{"smiles": "C=CCc1ccc(OCCn2cccc2C=O)c(OC)c1", "Potency": "inconclusive: 0.146 µM [activator, partial curve, poor fit]"}
{"smiles": "O=C(NCCc1nc2ccccc2n1Cc1ccccc1F)c1ccc(F)cc1", "Potency": "inactive"}
{"smiles": "Cc1c(C(=O)N(Cc2ccc(Cl)cc2)C2CCS(=O)(=O)C2)oc2ccccc12", "note": "(centres undefined)", "Potency": "inconclusive: 0.112 µM [inhibitor, full curve, poor fit]"}
{"smiles": "CCOc1ccc(/C=N/N2C(=O)C(CC(=O)Nc3ccc(F)cc3F)SC2=NC)cc1OC", "note": "(centres undefined)", "Potency": "inactive"}
{"smiles": "O=C(Nc1cccc(C(=O)N2CCN(c3ccc(F)cc3)CC2)c1)c1ccccc1", "Potency": "inconclusive: 10 µM [inhibitor, partial curve, poor fit]"}
{"smiles": "Nc1ncc(S(=O)(=O)NCc2ccccc2)cn1", "Potency": "inactive"}
{"smiles": "CCOCC(O)CNc1ccccc1", "note": "(centres undefined)", "Potency": "inactive"}
{"smiles": "COc1ccc(CNc2nc3ccccc3n2C)c(O)c1", "Potency": "inconclusive: 35.5 µM [inhibitor, single point]"}
{"smiles": "COc1cc(S(=O)(=O)NCCc2c(C)[nH]c3ccc(C)cc23)ccc1Br", "Potency": "inconclusive: 1 µM [inhibitor, full curve, poor fit]"}
{"smiles": "COc1ccc(N2CCN(S(=O)(=O)CCNC(=O)c3ccco3)CC2)cc1", "Potency": "inconclusive: 0.112 µM [inhibitor, full curve, poor fit]"}
{"smiles": "O=C(CSc1nnc(CNC(=O)c2cccs2)o1)Nc1ccccc1", "Potency": "inconclusive: 3.98 µM [inhibitor, single point]"}
{"smiles": "COc1ccc(N(C(=O)c2ccccc2C)S(=O)(=O)c2ccc(Cl)cc2)cc1", "Potency": "inconclusive: 25.1 µM [inhibitor, single point]"}
{"smiles": "CCCOc1ccc2c(=O)c(-c3cc(C(=O)OC)oc3C)c(C)oc2c1", "Potency": "inconclusive: 13 µM [inhibitor, partial curve, poor fit]"}
{"smiles": "Cc1onc(-c2ccccc2Cl)c1C(=O)N/N=C(\\N)COc1ccc(Cl)cc1", "Potency": "inconclusive: 35.5 µM [inhibitor, single point]"}
{"smiles": "CCOc1ccc(CCNC(=O)c2cnc3c(-c4ccc(F)cc4)c(C)nn3c2C)cc1", "Potency": "inactive"}
{"smiles": "c1ccc(-c2noc(-c3cccc4ccccc34)n2)nc1", "Potency": "inconclusive: 23.1 µM [inhibitor, single point]"}
{"smiles": "O=C(Nc1ccc(Br)cc1)c1cc(-c2ccc3c(c2)OCO3)on1", "Potency": "inactive"}
{"smiles": "CCOc1ccccc1-n1nnnc1SCC(=O)Nc1cc2oc3ccccc3c2cc1OC", "Potency": "inconclusive: 0.184 µM [inhibitor, partial curve, poor fit]"}
{"smiles": "O=C(Cn1c(=O)oc2cc(S(=O)(=O)N3CCCC3)ccc21)Nc1ccccc1Br", "Potency": "inconclusive: 12.6 µM [inhibitor, partial curve, poor fit]"}
{"smiles": "COc1ccccc1NC(=O)C(C)OC(=O)Cc1ccsc1", "note": "(centres undefined)", "Potency": "inconclusive: 12.6 µM [inhibitor, partial curve, poor fit]"}
